# Data: the supplement of paper PMC8728848
# The list shows a part of the results.
# B1: EULS2 M1 (Oryza sativa) (protein)
# chain: MVYCRANPNYAMTARNGAVVLAPANPKDEYQHWIKDMRWSTSIKDEEGYPAFALVNKATGQAIKHSLGQSHPVRLVPYNPEVMDESVLWTESRDVGNGFRCIRMVNNIYLNFDAFHGDKYHGGVRDGTDIVLWKLCEGDNQRWKIQPYYILEQKLISEEDLNSAVDHHHHHH
# Tests used:
# Assay in all cases: glycan array binding signal (z-score within array); higher = stronger binding
# Settings in all cases: glycan notation: IUPAC condensed, linker removed
# [1] = target: Neu5Ac(a2-3)Gal(b1-3)[Fuc(a1-4)]GlcNAc
# Outline: (§1)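 The Consortium for Functional Glycomics database supplied 3228 glycan arrays, of which those lacking an available protein sequence were dropped. The binding signal, a within-array Z-score, was averaged across arrays of the same protein sequence and across linkers. Negative scores can be read as non-binding.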
# [2] = target: Neu5Ac(a2-3)Gal(b1-3)[Fuc(a1-4)]GlcNAc(b1-3)Gal(b1-3)[Fuc(a1-4)]GlcNAc
# Outline: as §1
# [3] = target: Neu5Ac(a2-3)Gal(b1-3)[Fuc(a1-4)]GlcNAc(b1-3)Gal(b1-4)[Fuc(a1-3)]GlcNAc
# Outline: as §1
# [4] = target: Neu5Ac(a2-3)Gal(b1-3)[GlcNAc(b1-6)]GalNAc
# Outline: as §1
# [5] = target: Neu5Ac(a2-3)Gal(b1-3)[Neu5Ac(a2-6)]GalNAc
# Outline: as §1
# [6] = target: Neu5Ac(a2-3)Gal(b1-3)[Neu5Ac(a2-6)]GlcNAc(b1-3)[Fuc(a1-3)[Gal(b1-4)]GlcNAc(b1-6)]Gal(b1-4)Glc
# Outline: as §1
# [7] = target: Neu5Ac(a2-3)Gal(b1-3)]Neu5Ac(a2-3)Gal(b1-4)]GlcNAc
# Outline: as §1
# Neu5Ac(a2-3)Gal(b1-4)Glc = target: Neu5Ac(a2-3)Gal(b1-4)Glc
# Outline: as §1
# [8] = target: Neu5Ac(a2-3)Gal(b1-4)GlcNAc
# Outline: as §1
# [9] = target: Neu5Ac(a2-3)Gal(b1-4)GlcNAc(b1-2)Man
# Outline: as §1
# [10] = target: Neu5Ac(a2-3)Gal(b1-4)GlcNAc(b1-2)Man(a1-3)[GlcNAc(b1-4)][Neu5Ac(a2-3)Gal(b1-4)GlcNAc(b1-2)Man(a1-6)]Man(b1-4)GlcNAc(b1-4)GlcNAc
# Outline: as §1
# [11] = target: Neu5Ac(a2-3)Gal(b1-4)GlcNAc(b1-2)Man(a1-3)[Neu5Ac(a2-3)Gal(b1-4)GlcNAc(b1-2)Man(a1-6)]Man(b1-4)GlcNAc(b1-4)GlcNAc
# Outline: as §1
# [12] = target: Neu5Ac(a2-3)Gal(b1-4)GlcNAc(b1-2)Man(a1-3)[Neu5Ac(a2-3)Gal(b1-4)GlcNAc(b1-2)Man(a1-6)]Man(b1-4)GlcNAc(b1-4)[Fuc(a1-6)]GlcNAc
# Outline: as §1
# [13] = target: Neu5Ac(a2-3)Gal(b1-4)GlcNAc(b1-2)Man(a1-3)[Neu5Ac(a2-6)Gal(b1-4)GlcNAc(b1-2)Man(a1-6)]Man(b1-4)GlcNAc(b1-4)GlcNAc
# Outline: as §1
# [14] = target: Neu5Ac(a2-3)Gal(b1-4)GlcNAc(b1-2)[Neu5Ac(a2-3)Gal(b1-4)GlcNAc(b1-4)]Man(a1-3)[GlcNAc(b1-4)][Neu5Ac(a2-3)Gal(b1-4)GlcNAc(b1-2)[Neu5Ac(a2-3)Gal(b1-4)GlcNAc(b1-6)]Man(a1-6)]Man(b1-4)GlcNAc(b1-4)GlcNAc
# Outline: as §1
# [15] = target: Neu5Ac(a2-3)Gal(b1-4)GlcNAc(b1-2)[Neu5Ac(a2-3)Gal(b1-4)GlcNAc(b1-4)]Man(a1-3)[GlcNAc(b1-4)][Neu5Ac(a2-3)Gal(b1-4)GlcNAc(b1-4)Man(a1-6)]Man(b1-4)GlcNAc(b1-4)GlcNAc
# Outline: as §1
# [16] = target: Neu5Ac(a2-3)Gal(b1-4)GlcNAc(b1-2)[Neu5Ac(a2-3)Gal(b1-4)GlcNAc(b1-6)]Man(a1-6)[Neu5Ac(a2-3)Gal(b1-4)GlcNAc(b1-2)Man(a1-3)]Man(b1-4)GlcNAc(b1-4)GlcNAc
# Outline: as §1
# [17] = target: Neu5Ac(a2-3)Gal(b1-4)GlcNAc(b1-2)[Neu5Ac(a2-3)Gal(b1-4)GlcNAc(b1-6)]Man(a1-6)[Neu5Ac(a2-3)Gal(b1-4)GlcNAc(b1-2)Man(a1-3)][GlcNAc(b1-4)]Man(b1-4)GlcNAc(b1-4)GlcNAc
# Outline: as §1
# [18] = target: Neu5Ac(a2-3)Gal(b1-4)GlcNAc(b1-3)Gal
# Outline: as §1
# [19] = target: Neu5Ac(a2-3)Gal(b1-4)GlcNAc(b1-3)Gal(b1-3)GlcNAc
# Outline: as §1
# [20] = target: Neu5Ac(a2-3)Gal(b1-4)GlcNAc(b1-3)Gal(b1-4)GlcNAc
# Outline: as §1
# [21] = target: Neu5Ac(a2-3)Gal(b1-4)GlcNAc(b1-3)Gal(b1-4)GlcNAc(b1-2)Man(a1-3)[Neu5Ac(a2-3)Gal(b1-4)GlcNAc(b1-3)Gal(b1-4)GlcNAc(b1-2)Man(a1-6)]Man(b1-4)GlcNAc(b1-4)GlcNAc
# Outline: as §1
# [22] = target: Neu5Ac(a2-3)Gal(b1-4)GlcNAc(b1-3)Gal(b1-4)GlcNAc(b1-3)Gal(b1-4)GlcNAc
# Outline: as §1
# [23] = target: Neu5Ac(a2-3)Gal(b1-4)GlcNAc(b1-3)Gal(b1-4)GlcNAc(b1-3)Gal(b1-4)GlcNAc(b1-2)Man(a1-3)[Neu5Ac(a2-3)Gal(b1-4)GlcNAc(b1-3)Gal(b1-4)GlcNAc(b1-3)Gal(b1-4)GlcNAc(b1-2)Man(a1-6)]GalNAc
# Outline: as §1
# [24] = target: Neu5Ac(a2-3)Gal(b1-4)GlcNAc(b1-3)Gal(b1-4)GlcNAc(b1-3)GalNAc
# Outline: as §1
# [25] = target: Neu5Ac(a2-3)Gal(b1-4)GlcNAc(b1-3)Gal(b1-4)GlcNAc(b1-3)[Neu5Ac(a2-3)Gal(b1-4)GlcNAc(b1-3)Gal(b1-4)GlcNAc(b1-6)]GalNAc
# Outline: as §1
# [26] = target: Neu5Ac(a2-3)Gal(b1-4)GlcNAc(b1-3)Gal(b1-4)GlcNAc(b1-6)[Gal(b1-3)]GalNAc
# Outline: as §1
# [27] = target: Neu5Ac(a2-3)Gal(b1-4)GlcNAc(b1-3)Gal(b1-4)[Fuc(a1-3)]GlcNAc
# Outline: as §1
# [28] = target: Neu5Ac(a2-3)Gal(b1-4)GlcNAc(b1-3)GalNAc
# Outline: as §1
# [29] = target: Neu5Ac(a2-3)Gal(b1-4)GlcNAc(b1-3)[Neu5Ac(a2-3)Gal(b1-4)GlcNAc(b1-6)]GalNAc
# Outline: as §1
# [30] = target: Neu5Ac(a2-3)Gal(b1-4)GlcNAc(b1-6)GalNAc
# Outline: as §1
# [31] = target: Neu5Ac(a2-3)Gal(b1-4)GlcNAc(b1-6)[Gal(b1-3)]GalNAc
# Outline: as §1
# [32] = target: Neu5Ac(a2-3)Gal(b1-4)GlcNAc(b1-6)[Neu5Ac(a2-3)Gal(b1-3)]GalNAc
# Outline: as §1
# [33] = target: Neu5Ac(a2-3)Gal(b1-4)GlcNAc6S
# Outline: as §1
# [34] = target: Neu5Ac(a2-3)Gal(b1-4)[Fuc(a1-3)]GlcNAc
# Outline: as §1
# [35] = target: Neu5Ac(a2-3)Gal(b1-4)[Fuc(a1-3)]GlcNAc(b1-2)Man
# Outline: as §1
# [36] = target: Neu5Ac(a2-3)Gal(b1-4)[Fuc(a1-3)]GlcNAc(b1-3)Gal
# Outline: as §1
# [37] = target: Neu5Ac(a2-3)Gal(b1-4)[Fuc(a1-3)]GlcNAc(b1-3)Gal(b1-4)GlcNAc
# Outline: as §1
# [38] = target: Neu5Ac(a2-3)Gal(b1-4)[Fuc(a1-3)]GlcNAc(b1-3)Gal(b1-4)[Fuc(a1-3)]GlcNAc(b1-3)Gal(b1-4)[Fuc(a1-3)]GlcNAc
# Outline: as §1
# [39] = target: Neu5Ac(a2-3)Gal(b1-4)[Fuc(a1-3)]GlcNAc(b1-3)GalNAc
# Outline: as §1
# [40] = target: Neu5Ac(a2-3)Gal(b1-4)[Fuc(a1-3)]GlcNAc(b1-6)[Gal(b1-3)]GalNAc
# Outline: as §1
# [41] = target: Neu5Ac(a2-3)Gal(b1-4)[Fuc(a1-3)]GlcNAc(b1-6)[Neu5Ac(a2-3)Gal(b1-3)]GalNAc
# Outline: as §1
# [42] = target: Neu5Ac(a2-3)Gal(b1-4)[Fuc(a1-3)]GlcNAc6S
# Outline: as §1
# [43] = target: Neu5Ac(a2-3)Gal6S(b1-4)GlcNAc
# Outline: as §1
# [44] = target: Neu5Ac(a2-3)Gal6S(b1-4)[Fuc(a1-3)]GlcNAc
# Outline: as §1
binder,measurement,setting,value
B1,glycan array binding signal (z-score),[1],-0.739
same,glycan array binding signal (z-score),[2],-0.673
same,glycan array binding signal (z-score),[3],1.75
same,glycan array binding signal (z-score),[4],-1.12
same,glycan array binding signal (z-score),[5],0.067
same,glycan array binding signal (z-score),[6],-0.53
same,glycan array binding signal (z-score),[7],-0.6
same,glycan array binding signal (z-score),Neu5Ac(a2-3)Gal(b1-4)Glc,-0.186
same,glycan array binding signal (z-score),[8],-0.548
same,glycan array binding signal (z-score),[9],0.285
same,glycan array binding signal (z-score),[10],0.176
same,glycan array binding signal (z-score),[11],-2.21
same,glycan array binding signal (z-score),[12],0.573
same,glycan array binding signal (z-score),[13],-0.38
same,glycan array binding signal (z-score),[14],-0.833
same,glycan array binding signal (z-score),[15],-0.368
same,glycan array binding signal (z-score),[16],0.399
same,glycan array binding signal (z-score),[17],-0.305
same,glycan array binding signal (z-score),[18],-0.337
same,glycan array binding signal (z-score),[19],-0.209
same,glycan array binding signal (z-score),[20],-0.197
same,glycan array binding signal (z-score),[21],0.426
same,glycan array binding signal (z-score),[22],-0.07
same,glycan array binding signal (z-score),[23],1.33
same,glycan array binding signal (z-score),[24],0.072
same,glycan array binding signal (z-score),[25],0.135
same,glycan array binding signal (z-score),[26],-0.334
same,glycan array binding signal (z-score),[27],-0.885
same,glycan array binding signal (z-score),[28],-0.009
same,glycan array binding signal (z-score),[29],0.003
same,glycan array binding signal (z-score),[30],0.699
same,glycan array binding signal (z-score),[31],-0.262
same,glycan array binding signal (z-score),[32],-0.674
same,glycan array binding signal (z-score),[33],-0.196
same,glycan array binding signal (z-score),[34],0.096
same,glycan array binding signal (z-score),[35],-0.036
same,glycan array binding signal (z-score),[36],-0.835
same,glycan array binding signal (z-score),[37],-0.516
same,glycan array binding signal (z-score),[38],0.497
same,glycan array binding signal (z-score),[39],0.991
same,glycan array binding signal (z-score),[40],-1.01
same,glycan array binding signal (z-score),[41],0.966
same,glycan array binding signal (z-score),[42],-0.034
same,glycan array binding signal (z-score),[43],-0.682
same,glycan array binding signal (z-score),[44],-0.027

# Reformatted: results already given.
binder | measurement | setting | value
B1 | glycan array binding signal (z-score) | [22] | -0.07
same | glycan array binding signal (z-score) | [23] | 1.33
same | glycan array binding signal (z-score) | [24] | 0.072
same | glycan array binding signal (z-score) | [25] | 0.135
same | glycan array binding signal (z-score) | [26] | -0.334
same | glycan array binding signal (z-score) | [27] | -0.885
same | glycan array binding signal (z-score) | [28] | -0.009
same | glycan array binding signal (z-score) | [29] | 0.003
same | glycan array binding signal (z-score) | [30] | 0.699
same | glycan array binding signal (z-score) | [31] | -0.262
same | glycan array binding signal (z-score) | [32] | -0.674
same | glycan array binding signal (z-score) | [33] | -0.196
same | glycan array binding signal (z-score) | [34] | 0.096
